{"source": "patent EP2260303B1", "about": "“BIOMARKER FOR THE DIAGNOSIS OF A BRAIN TUMOR” (Meyer, Helmut E., priority 2008, dated 2009)", "system": "stabilen Zelllinien aus A172 und T98G", "test": "Comparison of the response of the stable A172 and T98G cell lines to cytostatics (summary in words)", "type": "cell-based, human", "settings": "stable cell lines from A172 and T98G, versus control", "description": "Alle erfindungsgemäßen Biomarker (SEQ ID No. 1 - 24), die in den differentiellen Untersuchungen identifiziert wurden, sind potentiell in der Lage an der Vermittlung der Chemosensitivität dieser Gliome beteiligt zu sein. Durch den Einsatz ausgewählter Zytostatika mit unterschiedlichen Wirkmechanismen kann überprüft werden, ob die erfindungsgemäßen Biomarker (SEQ ID No. 1 - 24) direkt mit dem Reaktionsmechanismus der in der Therapie üblichen Zytostatika wechselwirken. Hierzu wurden stabile Zelllinien hergestellt und die erfindungsgemäßen Biomarker verstärkt exprimiert (Überexpression) und vermindert (knock-down) exprimiert (siehe J. Sambrook, E.F. Fritsch, T. Maniatis (1989), Molecular cloning: A laboratory manual, 2nd Edition, Cold Spring Habor Laboratory Press, Cold Spring Habor, USA oder Ausubel, \"Current Protocols in Molecular Biology\", Green Publishing Associates and Wiley Interscience, N.Y. (1989)). Eingesetzte Zytostatika: Carmustin und Vincristin, zwei Substanzen aus dem in der Therapie üblichen PCV Polychemotherapieschema, und Temozolomid, einem in der Therapie […] maligner Gliome neueren Wirkstoff. Zur Auswertung eines Effekts wurden Dosis-Wirkungs-Kurven und deren Lage zueinander und der korrespondierende EC50 Wert (Effektkonzentration; EC-50-Wert besagt, dass bei dieser Konzentration des Stoffes die Hälfte der Versuchsorganismen Wirkungen zeigt) berechnet. […]", "note": "The name of at least one read-out is uncertain.", "data": [{"smiles": "O=NN(CCCl)C(=O)NCCCl", "note": "[Carmustin]", "values": [{"measurement": "veränderte Reaktion auf eine Behandlung (EC50 Werte)", "setting": "biomarkers overexpressed", "value": "erhöhte EC50 Werte"}, {"measurement": "veränderte Reaktion auf eine Behandlung (EC50 Werte)", "setting": "knock-down of the biomarkers", "value": "verminderte EC50 Werte"}]}]}
